We go through 34 targets from the supplement of paper PMC12819154, “High-throughput peptide-centric local stability assay extends protein–ligand identification to membrane proteins, tissues and bacteria” (Nature Structural & Molecular Biology, 2025).

Sequences of proteins named here, by UniProt entry; tags and fusion partners are left off. A change or cut given only in a name is not applied to a line headed by its entry.
UniProt P05052: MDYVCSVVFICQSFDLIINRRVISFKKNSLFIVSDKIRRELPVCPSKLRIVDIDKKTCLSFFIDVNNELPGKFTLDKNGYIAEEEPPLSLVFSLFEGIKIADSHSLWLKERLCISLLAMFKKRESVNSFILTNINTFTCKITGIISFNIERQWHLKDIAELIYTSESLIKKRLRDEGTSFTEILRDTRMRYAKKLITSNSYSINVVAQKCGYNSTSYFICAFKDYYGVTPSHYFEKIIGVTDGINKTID
UniProt P06129: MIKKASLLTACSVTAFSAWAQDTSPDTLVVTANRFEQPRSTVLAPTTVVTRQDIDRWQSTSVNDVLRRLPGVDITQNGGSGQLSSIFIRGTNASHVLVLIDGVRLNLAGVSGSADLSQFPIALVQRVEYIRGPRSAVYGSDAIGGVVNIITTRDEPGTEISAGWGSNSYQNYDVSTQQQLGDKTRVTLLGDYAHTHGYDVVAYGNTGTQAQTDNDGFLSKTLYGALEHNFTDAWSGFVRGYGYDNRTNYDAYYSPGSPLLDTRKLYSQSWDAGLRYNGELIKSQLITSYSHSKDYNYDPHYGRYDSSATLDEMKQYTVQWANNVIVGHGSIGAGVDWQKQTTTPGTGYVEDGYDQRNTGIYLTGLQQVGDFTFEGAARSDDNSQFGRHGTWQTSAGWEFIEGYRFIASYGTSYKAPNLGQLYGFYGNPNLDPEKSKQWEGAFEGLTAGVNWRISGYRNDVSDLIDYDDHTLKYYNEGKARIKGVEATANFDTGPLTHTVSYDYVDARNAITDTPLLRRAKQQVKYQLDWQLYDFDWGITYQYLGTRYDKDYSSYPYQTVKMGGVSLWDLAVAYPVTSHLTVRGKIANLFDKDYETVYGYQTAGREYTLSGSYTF
UniProt P00894: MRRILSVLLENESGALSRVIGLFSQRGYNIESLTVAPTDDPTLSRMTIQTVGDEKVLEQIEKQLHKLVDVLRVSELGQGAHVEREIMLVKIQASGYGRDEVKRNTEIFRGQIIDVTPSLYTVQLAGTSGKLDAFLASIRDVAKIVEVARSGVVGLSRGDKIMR
UniProt P05827: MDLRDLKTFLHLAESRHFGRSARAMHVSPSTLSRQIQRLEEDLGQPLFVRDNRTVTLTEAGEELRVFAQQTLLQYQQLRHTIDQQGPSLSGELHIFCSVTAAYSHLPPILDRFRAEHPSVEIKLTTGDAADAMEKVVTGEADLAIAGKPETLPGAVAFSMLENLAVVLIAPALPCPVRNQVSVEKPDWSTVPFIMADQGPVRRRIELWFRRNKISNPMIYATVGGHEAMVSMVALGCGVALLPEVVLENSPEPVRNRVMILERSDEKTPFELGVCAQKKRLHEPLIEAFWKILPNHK
UniProt A5A607: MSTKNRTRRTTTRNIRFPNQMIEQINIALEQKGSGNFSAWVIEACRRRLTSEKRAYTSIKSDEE
UniProt P00803: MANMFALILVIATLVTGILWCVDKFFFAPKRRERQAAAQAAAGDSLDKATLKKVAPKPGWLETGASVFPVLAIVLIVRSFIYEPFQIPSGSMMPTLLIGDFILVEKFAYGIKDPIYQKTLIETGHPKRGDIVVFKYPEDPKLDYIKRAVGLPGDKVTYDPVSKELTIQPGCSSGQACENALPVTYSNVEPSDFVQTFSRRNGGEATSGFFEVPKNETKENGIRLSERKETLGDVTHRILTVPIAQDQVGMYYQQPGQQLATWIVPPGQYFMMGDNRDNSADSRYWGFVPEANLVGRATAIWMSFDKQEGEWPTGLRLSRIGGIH
UniProt P05706: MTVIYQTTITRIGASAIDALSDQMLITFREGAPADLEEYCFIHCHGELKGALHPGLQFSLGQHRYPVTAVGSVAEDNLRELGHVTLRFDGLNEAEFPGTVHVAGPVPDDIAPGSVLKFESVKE
UniProt P00909: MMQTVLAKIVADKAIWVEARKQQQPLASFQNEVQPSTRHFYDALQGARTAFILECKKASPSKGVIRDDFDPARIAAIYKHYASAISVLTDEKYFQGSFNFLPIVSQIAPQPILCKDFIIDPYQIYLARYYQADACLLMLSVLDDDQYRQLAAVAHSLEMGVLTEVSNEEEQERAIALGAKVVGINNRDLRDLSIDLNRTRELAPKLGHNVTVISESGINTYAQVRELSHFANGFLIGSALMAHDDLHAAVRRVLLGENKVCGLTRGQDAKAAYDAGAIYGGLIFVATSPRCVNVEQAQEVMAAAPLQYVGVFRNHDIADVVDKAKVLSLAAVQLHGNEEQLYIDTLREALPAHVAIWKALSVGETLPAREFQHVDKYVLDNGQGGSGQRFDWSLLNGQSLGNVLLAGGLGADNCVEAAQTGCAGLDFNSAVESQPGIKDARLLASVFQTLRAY
UniProt P00935: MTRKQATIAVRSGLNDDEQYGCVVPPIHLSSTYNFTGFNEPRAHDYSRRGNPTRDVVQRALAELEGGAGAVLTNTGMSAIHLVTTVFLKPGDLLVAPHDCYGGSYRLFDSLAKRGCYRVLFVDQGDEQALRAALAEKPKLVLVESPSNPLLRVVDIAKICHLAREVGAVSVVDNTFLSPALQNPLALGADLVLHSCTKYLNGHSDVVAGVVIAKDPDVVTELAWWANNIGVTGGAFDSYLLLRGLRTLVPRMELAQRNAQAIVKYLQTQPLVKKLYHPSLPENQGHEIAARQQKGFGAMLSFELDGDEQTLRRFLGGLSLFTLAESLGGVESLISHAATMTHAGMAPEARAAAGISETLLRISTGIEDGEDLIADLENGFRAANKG
UniProt P00944: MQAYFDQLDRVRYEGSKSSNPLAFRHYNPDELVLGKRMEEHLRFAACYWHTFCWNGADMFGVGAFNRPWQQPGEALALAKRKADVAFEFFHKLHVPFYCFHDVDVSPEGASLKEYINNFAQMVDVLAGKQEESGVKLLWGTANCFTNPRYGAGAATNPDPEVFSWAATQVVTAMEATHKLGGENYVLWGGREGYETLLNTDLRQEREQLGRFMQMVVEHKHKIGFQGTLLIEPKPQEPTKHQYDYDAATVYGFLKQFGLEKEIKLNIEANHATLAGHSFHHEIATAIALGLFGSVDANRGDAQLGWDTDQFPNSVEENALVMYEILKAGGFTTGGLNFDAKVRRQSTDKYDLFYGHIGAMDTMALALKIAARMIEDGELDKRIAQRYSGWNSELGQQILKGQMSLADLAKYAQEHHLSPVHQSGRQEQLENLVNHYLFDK
UniProt P05458: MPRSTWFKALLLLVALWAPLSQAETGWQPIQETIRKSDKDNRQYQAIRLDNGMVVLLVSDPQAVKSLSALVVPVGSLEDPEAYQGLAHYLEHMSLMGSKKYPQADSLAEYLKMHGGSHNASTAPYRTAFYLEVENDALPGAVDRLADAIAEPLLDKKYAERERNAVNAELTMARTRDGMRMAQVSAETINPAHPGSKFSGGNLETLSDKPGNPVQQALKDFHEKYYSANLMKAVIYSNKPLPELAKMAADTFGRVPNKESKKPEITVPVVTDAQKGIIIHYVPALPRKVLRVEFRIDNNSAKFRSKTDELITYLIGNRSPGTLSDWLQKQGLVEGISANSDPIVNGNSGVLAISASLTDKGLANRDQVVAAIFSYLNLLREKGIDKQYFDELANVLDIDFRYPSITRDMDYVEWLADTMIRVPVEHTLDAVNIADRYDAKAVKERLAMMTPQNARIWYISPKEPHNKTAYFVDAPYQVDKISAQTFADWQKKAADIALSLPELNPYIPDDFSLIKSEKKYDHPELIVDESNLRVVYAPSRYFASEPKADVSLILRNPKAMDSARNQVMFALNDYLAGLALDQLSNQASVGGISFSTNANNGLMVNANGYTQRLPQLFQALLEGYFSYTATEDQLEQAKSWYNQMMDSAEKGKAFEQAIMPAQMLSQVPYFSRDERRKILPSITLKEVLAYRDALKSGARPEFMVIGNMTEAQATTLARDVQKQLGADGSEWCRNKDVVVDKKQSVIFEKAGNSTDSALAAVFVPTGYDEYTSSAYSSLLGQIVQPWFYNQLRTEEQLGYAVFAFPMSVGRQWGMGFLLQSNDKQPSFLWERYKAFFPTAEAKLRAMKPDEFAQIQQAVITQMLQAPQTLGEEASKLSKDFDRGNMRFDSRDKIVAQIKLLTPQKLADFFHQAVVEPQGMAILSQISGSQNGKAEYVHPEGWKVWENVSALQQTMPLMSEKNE
UniProt P02942: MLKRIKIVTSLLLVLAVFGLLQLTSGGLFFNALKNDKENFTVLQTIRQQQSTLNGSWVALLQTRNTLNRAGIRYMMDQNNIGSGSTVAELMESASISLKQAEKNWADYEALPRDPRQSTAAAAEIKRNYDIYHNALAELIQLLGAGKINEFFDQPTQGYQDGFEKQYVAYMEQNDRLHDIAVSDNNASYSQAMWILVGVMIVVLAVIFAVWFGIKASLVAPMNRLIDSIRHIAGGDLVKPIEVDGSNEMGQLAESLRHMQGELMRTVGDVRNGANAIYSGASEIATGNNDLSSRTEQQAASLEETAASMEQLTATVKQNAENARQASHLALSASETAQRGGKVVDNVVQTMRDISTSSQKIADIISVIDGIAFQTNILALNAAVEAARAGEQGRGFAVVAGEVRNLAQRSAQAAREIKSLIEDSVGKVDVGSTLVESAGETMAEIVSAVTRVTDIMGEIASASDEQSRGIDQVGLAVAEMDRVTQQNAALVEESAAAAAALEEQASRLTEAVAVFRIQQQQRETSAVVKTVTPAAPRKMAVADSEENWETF
UniProt P05050: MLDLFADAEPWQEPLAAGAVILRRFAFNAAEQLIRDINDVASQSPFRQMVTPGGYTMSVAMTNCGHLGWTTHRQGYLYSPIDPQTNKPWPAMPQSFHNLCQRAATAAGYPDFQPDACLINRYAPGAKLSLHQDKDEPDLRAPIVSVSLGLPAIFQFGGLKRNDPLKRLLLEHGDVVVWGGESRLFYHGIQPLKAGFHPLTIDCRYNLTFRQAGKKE
UniProt P04391: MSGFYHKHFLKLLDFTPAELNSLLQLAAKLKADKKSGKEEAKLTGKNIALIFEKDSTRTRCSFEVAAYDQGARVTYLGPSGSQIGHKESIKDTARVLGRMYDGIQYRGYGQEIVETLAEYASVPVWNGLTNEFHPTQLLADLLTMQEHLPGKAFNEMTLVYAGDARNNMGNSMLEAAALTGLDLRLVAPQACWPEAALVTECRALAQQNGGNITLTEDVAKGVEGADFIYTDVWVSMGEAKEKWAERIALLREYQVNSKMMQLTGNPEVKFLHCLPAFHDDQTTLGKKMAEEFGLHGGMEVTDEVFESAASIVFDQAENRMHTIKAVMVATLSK
UniProt P02921: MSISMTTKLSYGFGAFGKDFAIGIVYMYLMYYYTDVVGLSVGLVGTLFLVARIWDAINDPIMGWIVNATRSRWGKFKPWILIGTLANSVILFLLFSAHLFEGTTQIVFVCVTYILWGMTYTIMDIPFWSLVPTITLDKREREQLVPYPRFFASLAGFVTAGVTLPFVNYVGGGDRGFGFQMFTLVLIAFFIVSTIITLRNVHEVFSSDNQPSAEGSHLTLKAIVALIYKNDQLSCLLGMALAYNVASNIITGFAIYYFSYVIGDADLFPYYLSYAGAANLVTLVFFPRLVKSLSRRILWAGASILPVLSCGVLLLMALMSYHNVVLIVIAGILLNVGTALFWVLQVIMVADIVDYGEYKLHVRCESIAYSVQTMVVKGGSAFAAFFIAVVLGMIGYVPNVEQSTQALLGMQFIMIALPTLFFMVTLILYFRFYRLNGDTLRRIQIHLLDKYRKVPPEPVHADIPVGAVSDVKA
UniProt P02931: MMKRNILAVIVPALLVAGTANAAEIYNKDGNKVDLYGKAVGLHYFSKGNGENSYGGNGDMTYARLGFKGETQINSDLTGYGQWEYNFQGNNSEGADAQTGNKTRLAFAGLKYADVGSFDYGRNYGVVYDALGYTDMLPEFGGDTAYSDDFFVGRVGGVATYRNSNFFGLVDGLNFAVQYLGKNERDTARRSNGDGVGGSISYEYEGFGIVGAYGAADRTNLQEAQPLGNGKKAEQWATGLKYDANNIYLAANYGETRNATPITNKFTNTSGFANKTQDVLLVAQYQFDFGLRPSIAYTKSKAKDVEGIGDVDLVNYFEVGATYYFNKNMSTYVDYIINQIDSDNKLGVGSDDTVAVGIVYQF
UniProt P02930: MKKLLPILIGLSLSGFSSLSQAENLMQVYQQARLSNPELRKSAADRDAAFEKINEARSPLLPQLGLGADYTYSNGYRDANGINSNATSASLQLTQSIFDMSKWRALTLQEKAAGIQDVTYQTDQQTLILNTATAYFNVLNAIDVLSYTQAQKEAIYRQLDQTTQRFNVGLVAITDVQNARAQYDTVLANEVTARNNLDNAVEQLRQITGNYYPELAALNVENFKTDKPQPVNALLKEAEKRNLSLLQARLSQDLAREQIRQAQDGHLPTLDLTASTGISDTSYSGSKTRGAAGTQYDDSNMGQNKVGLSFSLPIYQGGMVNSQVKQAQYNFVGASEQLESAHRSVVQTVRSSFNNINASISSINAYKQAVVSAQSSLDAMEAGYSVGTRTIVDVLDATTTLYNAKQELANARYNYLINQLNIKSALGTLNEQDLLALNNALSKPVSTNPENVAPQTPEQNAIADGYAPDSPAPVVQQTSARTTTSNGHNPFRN

This is a selection; strong and weak results do not stand in their true shares. Most values lie at the level of the controls, where differences are scatter.
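Further: lysate desalted by size exclusion to strip endogenous ATP, peptide intensities built from DIA-NN precursor signals, and peptides missing any value discarded before comparison.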

Compound in the test: Nc1ncnc2c1ncn2[C@@H]1O[C@H](COP(=O)(O)OP(=O)(O)OP(=O)(O)O)[C@@H](O)[C@H]1O [adenosine 5'-triphosphate]
Nature of the test: log2 fold change of tryptic peptide abundance, ligand vs vehicle (limited proteolysis) (log2 ratio); higher = more trypsin-susceptible (destabilized). Particulars: ligand concentration: 5 mM; sample: E. coli desalted lysate; replicate design: treated before aliquoting. As for the experimental part: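 HT-PELSA: desalted E. coli K-12 BW25113 lysate (with 12 mM MgCl2) incubated with 5 mM ATP (pH 7) or water for 30 min at 25 C, then a 4 min trypsin pulse at 22 C. Peptides were quantified by DIA-MS (4 replicates). Value is the peptide log2 fold change (treated/control); negative = stabilized. Scale: negative = ligand-stabilized region.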
“UniProt P05052 (peptide sequence: LRDEGTSFTEILR, peptide start residue: 173)”: the log2 fold change was found to be 0.369.
Regarding “UniProt P03030 (peptide sequence: QLLDQLFTEHQVK, peptide start residue: 205)”, the log2 fold change is 0.328.
As for “UniProt P06129 (peptide sequence: GTNASHVLVLIDGVR, peptide start residue: 90)”, the log2 fold change is -0.288.
Under “UniProt P02929 (peptide sequence: EAPVVIEKPKPK, peptide start residue: 84)” stands -0.793; under “UniProt P00894 (peptide sequence: LDAFLASIR, peptide start residue: 131)”, 0.674.
Under “UniProt P05827 (peptide sequence: LTTGDAADAMEK, peptide start residue: 124)” stands -0.344.
Under “UniProt P05100 (peptide sequence: ACFHQFDPVKVAAMQEEDVER, peptide start residue: 58)” stands -0.667; under “UniProt P06136 (peptide sequence: NSEEEVSSR, peptide start residue: 10)”, -0.153.
For the target “UniProt P02918 (peptide sequence: SDTQQGPTPR, peptide start residue: 387)”, the log2 fold change is -0.245.
With “UniProt P06610 (peptide sequence: FLVGRDGK, peptide start residue: 150)”, the log2 fold change worked out at 0.231.
Under “UniProt A5A607 (peptide sequence: AYTSIKSDEE, peptide start residue: 55)” stands 0.116; under “UniProt P02920 (peptide sequence: RSNFEFGR, peptide start residue: 135)”, -0.33; under “UniProt P00803 (peptide sequence: QAAAQAAAGDSLDK, peptide start residue: 35)”, -0.118.
Under “UniProt P00448 (peptide sequence: DFGSVDNFKAEFEK, peptide start residue: 106)” stands 0.452.
Under “UniProt P00634 (peptide sequence: AAQGDITAPGGAR, peptide start residue: 33)” stands 0.0274; under “UniProt P05706 (peptide sequence: GALHPGLQFSLGQHR, peptide start residue: 50)”, -0.145; under “UniProt P00895 (peptide sequence: AGEIFQVVPSRR, peptide start residue: 258)”, -0.262.
Turning to “UniProt P00909 (peptide sequence: LLASVFQTLR, peptide start residue: 442)”, the log2 fold change is -0.919.
Under “UniProt P00935 (peptide sequence: AAAGISETLLR, peptide start residue: 351)” stands -0.344; under “UniProt P00944 (peptide sequence: RMEEHLR, peptide start residue: 37)”, 0.475.
The value for “UniProt P03023 (peptide sequence: VVNQASHVSAK, peptide start residue: 23)” was 0.159; that for “UniProt P05458 (peptide sequence: MAQVSAETINPAHPGSK, peptide start residue: 181)” was 0.431; that for “UniProt P02942 (peptide sequence: GFAVVAGEVR, peptide start residue: 395)” was 0.151.
Under “UniProt P00370 (peptide sequence: HLGADTDVPAGDIGVGGR, peptide start residue: 157)” stands 0.419; under “UniProt P05050 (peptide sequence: DINDVASQSPFR, peptide start residue: 36)”, 1; under “UniProt P04391 (peptide sequence: VTYLGPSGSQIGHK, peptide start residue: 74)”, -0.62.
As to “UniProt P02921 (peptide sequence: IQIHLLDKYR, peptide start residue: 443)”, the log2 fold change worked out at 0.263.
The value for “UniProt P06134 (peptide sequence: YALADCELGR, peptide start residue: 191)” was 0.374.
Under “UniProt P00936 (peptide sequence: HYLNELELYR, peptide start residue: 72)” stands -0.763.
The value for “UniProt P02931 (peptide sequence: FTNTSGFANK, peptide start residue: 266)” was 0.446; that for “UniProt P02924 (peptide sequence: VIAVDDQFVNAK, peptide start residue: 108)” was -0.242.
Consider “UniProt P05042 (peptide sequence: SEKDSMGAIDVPADKLWGAQTQR, peptide start residue: 6)”, for which the log2 fold change is -0.239.
Turning to “UniProt P02930 (peptide sequence: TTTSNGHNPFR, peptide start residue: 482)”, the log2 fold change was 0.279.
For the target “UniProt P05824 (peptide sequence: ETDGAMTETHMQSLNKK, peptide start residue: 508)”, the log2 fold change came to 0.359.
